Source: PMC7713384
Results are given in words; binding and its absence hold for the method and conditions named. Some binding calls cover weakened binding; strength is not graded here.

Protein sequences, listed by entry. Tags and fused reporters are not part of them. Lines headed by an entry give the natural chain unless they say otherwise; changes in a name come on top. Chains listed by the source or under a name are the forms on record and can include a tag or linker.
UniProt P19634: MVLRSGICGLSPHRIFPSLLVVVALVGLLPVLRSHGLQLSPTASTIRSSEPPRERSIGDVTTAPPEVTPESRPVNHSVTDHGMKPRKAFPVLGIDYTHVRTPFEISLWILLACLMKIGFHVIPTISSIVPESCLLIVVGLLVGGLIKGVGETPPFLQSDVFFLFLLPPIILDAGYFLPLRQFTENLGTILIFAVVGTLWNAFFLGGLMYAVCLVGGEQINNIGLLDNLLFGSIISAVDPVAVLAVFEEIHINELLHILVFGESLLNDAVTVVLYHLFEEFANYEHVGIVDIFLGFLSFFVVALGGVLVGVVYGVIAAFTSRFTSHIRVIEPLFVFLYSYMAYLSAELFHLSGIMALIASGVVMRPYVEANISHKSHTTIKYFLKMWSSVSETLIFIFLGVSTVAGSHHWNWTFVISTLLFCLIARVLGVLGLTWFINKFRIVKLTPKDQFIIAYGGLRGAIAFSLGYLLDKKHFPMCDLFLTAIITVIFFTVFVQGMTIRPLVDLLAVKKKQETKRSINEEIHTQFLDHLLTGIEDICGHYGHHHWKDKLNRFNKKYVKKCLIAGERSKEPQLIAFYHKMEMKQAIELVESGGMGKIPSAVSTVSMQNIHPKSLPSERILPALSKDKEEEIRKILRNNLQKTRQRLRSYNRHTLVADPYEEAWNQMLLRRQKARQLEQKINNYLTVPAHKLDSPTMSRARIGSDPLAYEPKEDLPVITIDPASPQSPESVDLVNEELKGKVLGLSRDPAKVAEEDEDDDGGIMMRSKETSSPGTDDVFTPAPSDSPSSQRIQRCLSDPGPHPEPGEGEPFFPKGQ
S-tagged NHE1 V503-R698 (C561A) (subdomains A-C of the NHE1 C-terminal tail) (P19634, form named): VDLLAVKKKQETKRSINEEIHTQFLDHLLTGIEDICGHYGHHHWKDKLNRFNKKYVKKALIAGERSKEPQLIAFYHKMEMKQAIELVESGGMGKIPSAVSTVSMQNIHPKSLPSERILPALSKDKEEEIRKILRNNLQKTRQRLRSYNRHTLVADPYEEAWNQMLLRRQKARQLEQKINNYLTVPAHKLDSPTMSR

Columns and labels:
[1] = target: T1, H6-CHP1 (calcineurin homologous protein 1) (UniProt Q99653); experiment: co-purification (Ni-NTA + SEC); H6-CHP1 co-expressed with S-tagged NHE1 in E. coli; lysis in 6 M GdnHCl, capture on Ni-NTA, refolding on the column, elution with 500 mM imidazole; Superdex 200 in 20 mM TrisHCl pH 8.0, 150 mM NaCl, 0.1 mM CaCl2
T1 sequence: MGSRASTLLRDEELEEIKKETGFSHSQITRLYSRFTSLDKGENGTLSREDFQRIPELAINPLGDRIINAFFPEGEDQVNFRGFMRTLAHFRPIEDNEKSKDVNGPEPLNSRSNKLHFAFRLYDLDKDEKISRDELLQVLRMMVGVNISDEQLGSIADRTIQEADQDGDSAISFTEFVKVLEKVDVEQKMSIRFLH

[2] = target: full length NHE1 with the LID4G-mutations (I574G, F576G, I586G, L588G) (human) (UniProt P19634); experiment: Western blot for dimers in cell lysates; lysates of AP-1 cells stably expressing wt- or 4G-NHE1; details only in Supplementary Fig. S11
[3] = target: wild-type human Na+/H+ exchanger 1 (NHE1) (human) (UniProt P19634); experiment: as above

With “S-tagged NHE1 V503-R698 (C561A) (subdomains A-C of the NHE1 C-terminal tail) (from UniProt P19634 503-698) (domain or fragment)” the binding [1] was “binds”.

With “full length NHE1 with the LID4G-mutations (I574G, F576G, I586G, L588G) (from UniProt P19634 1-815)” the binding [2] was “binds”.

With “wild-type human Na+/H+ exchanger 1 (NHE1) (from UniProt P19634 1-815)” the binding [3] was “binds”.
